From article doi:10.1101/2022.09.15.508097 come the findings set out here.

By UniProt entry, the sequences of proteins in these tests, tags left out.
UniProt Q96KQ7: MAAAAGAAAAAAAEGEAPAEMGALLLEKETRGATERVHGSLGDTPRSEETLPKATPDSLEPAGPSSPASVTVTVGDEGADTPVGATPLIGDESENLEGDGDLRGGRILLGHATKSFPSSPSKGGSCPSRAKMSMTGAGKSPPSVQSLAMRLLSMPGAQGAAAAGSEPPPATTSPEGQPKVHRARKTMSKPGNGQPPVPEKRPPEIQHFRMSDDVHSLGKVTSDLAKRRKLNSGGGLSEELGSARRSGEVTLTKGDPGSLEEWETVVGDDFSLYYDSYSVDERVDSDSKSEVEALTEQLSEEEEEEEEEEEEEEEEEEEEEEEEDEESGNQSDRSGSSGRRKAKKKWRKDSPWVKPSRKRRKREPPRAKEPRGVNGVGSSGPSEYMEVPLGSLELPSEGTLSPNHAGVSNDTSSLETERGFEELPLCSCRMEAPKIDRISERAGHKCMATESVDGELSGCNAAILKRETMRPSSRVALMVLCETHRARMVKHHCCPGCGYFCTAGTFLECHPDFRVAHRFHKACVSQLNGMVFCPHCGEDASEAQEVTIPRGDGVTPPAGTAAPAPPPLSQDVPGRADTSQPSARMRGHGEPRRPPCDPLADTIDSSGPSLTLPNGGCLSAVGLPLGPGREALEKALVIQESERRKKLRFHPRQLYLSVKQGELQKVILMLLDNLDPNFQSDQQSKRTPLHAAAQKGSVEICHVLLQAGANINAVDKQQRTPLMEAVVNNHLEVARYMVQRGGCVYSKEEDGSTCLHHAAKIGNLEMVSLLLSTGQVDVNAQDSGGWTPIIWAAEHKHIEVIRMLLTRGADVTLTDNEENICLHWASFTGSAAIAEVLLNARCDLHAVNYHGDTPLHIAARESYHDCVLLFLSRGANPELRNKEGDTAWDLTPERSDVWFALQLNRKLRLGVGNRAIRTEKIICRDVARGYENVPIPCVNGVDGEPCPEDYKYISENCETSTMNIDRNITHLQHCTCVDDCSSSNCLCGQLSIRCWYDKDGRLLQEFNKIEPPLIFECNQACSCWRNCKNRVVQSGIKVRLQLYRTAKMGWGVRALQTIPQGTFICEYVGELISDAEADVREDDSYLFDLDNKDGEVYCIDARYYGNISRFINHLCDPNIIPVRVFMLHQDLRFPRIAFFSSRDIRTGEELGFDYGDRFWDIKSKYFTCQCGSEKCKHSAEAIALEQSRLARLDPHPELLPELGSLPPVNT

Results are given in words; binding and its absence hold for the method and conditions named. Some entries that bind do so weakly or less than the wild type. Sequences can lack the tags named with a protein.

What all share (test): recruitment to centromeres by fluorescence microscopy
Assay [1] addresses T1, GFP-ZNF518B^344–987 (human) (UniProt Q9C0D4).
T1 sequence: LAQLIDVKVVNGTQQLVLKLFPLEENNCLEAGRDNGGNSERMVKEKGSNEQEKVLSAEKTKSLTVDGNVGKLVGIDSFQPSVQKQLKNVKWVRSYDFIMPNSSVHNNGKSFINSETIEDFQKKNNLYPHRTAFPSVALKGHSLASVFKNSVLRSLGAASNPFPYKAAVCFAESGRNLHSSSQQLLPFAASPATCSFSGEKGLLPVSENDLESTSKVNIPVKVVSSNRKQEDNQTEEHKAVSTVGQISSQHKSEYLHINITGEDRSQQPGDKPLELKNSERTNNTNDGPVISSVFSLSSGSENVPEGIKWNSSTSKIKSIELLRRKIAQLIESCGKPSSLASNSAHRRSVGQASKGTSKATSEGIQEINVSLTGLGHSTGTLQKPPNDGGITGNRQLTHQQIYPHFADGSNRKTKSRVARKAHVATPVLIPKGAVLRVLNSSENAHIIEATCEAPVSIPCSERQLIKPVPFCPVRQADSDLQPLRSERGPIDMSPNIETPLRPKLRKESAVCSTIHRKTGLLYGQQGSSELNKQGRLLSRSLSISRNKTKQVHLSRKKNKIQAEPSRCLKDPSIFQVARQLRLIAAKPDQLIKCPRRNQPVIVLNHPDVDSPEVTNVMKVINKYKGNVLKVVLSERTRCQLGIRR

For assay [2], the target named is T2, GFP-ZNF518B^344–1074 (human) (UniProt Q9C0D4).
T2 sequence: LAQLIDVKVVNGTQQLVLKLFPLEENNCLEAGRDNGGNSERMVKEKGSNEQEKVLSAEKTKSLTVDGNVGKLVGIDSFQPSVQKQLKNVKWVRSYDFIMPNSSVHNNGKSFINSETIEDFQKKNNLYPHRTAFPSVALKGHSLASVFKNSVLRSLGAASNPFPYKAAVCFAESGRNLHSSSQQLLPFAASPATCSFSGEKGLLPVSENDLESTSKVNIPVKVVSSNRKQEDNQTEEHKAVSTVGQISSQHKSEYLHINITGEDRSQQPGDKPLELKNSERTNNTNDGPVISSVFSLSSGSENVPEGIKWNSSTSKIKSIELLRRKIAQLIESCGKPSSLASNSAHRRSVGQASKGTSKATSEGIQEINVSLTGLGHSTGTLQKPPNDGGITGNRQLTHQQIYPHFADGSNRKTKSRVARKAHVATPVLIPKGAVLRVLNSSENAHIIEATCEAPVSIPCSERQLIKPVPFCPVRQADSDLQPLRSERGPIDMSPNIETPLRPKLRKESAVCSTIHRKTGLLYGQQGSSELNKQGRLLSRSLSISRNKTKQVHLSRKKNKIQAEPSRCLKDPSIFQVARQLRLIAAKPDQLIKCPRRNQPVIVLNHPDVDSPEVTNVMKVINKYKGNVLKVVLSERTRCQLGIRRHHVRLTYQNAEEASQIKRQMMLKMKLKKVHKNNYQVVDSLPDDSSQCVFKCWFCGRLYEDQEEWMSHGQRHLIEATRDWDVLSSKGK

The target in assay [3] is T3, GFP-ZNF518B (WT) (human) (UniProt Q9C0D4).
T3 sequence: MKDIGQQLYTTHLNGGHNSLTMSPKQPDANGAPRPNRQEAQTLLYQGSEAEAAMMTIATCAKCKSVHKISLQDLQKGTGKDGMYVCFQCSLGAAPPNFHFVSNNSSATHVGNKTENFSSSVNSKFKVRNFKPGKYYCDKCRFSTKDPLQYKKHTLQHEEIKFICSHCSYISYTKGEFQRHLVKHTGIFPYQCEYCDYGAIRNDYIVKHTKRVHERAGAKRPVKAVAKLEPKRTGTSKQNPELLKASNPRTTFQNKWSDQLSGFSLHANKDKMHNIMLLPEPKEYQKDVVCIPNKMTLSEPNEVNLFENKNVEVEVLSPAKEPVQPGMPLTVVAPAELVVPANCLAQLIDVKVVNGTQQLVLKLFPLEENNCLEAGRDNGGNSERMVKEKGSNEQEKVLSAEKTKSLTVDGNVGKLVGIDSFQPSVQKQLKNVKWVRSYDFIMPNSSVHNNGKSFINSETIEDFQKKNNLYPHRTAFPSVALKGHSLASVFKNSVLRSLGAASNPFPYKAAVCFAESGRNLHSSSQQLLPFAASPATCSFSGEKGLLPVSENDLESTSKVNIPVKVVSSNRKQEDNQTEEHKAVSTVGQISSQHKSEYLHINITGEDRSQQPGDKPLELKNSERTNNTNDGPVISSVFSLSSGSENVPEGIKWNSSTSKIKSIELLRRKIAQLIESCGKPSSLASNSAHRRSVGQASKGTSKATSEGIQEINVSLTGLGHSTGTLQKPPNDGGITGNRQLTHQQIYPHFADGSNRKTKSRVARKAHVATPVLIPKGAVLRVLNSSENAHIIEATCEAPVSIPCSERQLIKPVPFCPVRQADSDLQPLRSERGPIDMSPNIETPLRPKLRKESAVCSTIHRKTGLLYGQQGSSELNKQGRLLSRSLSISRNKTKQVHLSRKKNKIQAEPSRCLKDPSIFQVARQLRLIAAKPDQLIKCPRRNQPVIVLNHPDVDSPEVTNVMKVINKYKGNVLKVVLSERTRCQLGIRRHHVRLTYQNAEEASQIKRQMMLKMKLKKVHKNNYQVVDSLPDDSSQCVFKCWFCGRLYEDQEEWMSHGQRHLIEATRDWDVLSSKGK

For “Halo-G9a (from UniProt Q96KQ7 1-1210) (enzyme)”, the values for the binding result in assay [1], in assay [2] and in assay [3] were “no binding”, “binds” and “binds”, respectively.
